Measurements as given in patent US8431396.
No constants are given. Whether binding was seen depends on the method and setting. For part of these data: Binding seen in cells or lysates may run through a third protein. Some entries that bind do so weakly or less than the wild type. For part of these data: Sequences can lack the tags named with a protein. Each block holds one binder with its values, some of them ahead of it.

The chains behind the UniProt entries cited, without tags or fusion partners. Where a name states a change or a piece, a line headed by the entry shows the natural chain unless it says otherwise. Residues count along the entry.
UniProt P35968: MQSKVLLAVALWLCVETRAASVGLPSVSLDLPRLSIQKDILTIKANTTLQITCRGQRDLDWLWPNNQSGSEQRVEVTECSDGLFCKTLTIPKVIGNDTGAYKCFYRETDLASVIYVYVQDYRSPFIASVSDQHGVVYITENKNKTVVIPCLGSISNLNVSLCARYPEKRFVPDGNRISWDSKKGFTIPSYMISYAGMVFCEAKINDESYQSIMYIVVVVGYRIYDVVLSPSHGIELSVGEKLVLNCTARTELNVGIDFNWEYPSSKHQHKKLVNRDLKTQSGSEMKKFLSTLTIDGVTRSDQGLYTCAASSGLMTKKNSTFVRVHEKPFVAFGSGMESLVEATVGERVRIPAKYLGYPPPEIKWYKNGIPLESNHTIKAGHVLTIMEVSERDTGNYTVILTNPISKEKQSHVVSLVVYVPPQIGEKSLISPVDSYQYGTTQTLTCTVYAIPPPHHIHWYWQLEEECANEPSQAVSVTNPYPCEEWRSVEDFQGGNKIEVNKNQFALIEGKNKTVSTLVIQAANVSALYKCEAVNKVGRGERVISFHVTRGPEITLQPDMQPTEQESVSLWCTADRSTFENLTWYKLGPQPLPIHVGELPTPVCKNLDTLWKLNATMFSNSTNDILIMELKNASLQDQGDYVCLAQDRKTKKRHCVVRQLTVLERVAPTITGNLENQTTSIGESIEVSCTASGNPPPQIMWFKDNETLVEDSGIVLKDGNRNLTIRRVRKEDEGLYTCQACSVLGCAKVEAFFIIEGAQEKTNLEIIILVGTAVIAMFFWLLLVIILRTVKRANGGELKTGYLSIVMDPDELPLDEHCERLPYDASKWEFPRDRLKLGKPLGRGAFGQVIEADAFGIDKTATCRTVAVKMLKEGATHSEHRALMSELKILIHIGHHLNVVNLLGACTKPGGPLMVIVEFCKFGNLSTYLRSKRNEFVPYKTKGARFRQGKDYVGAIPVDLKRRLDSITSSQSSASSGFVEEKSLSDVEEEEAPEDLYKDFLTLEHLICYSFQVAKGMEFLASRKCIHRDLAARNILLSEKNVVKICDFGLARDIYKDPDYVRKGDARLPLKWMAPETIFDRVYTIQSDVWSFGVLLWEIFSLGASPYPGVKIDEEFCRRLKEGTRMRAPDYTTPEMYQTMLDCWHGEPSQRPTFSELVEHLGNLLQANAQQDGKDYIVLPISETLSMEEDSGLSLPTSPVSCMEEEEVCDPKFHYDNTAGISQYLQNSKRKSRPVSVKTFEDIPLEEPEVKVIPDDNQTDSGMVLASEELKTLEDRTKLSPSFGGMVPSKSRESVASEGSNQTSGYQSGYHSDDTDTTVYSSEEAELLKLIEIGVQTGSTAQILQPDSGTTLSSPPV
KDR (VEGFR2) on the surface of PAE-KDR cells: residues 20-1356 of P35968
soluble KDR-IgG (receptor IgG chimeric protein): residues 20-764 of P35968

Legend:
[1] = molecular target: soluble KDR-IgG (receptor IgG chimeric protein) (UniProt P35968); experiment: cross-linking, SDS-PAGE and autoradiography
[2] = molecular target: soluble KDR-IgG (receptor IgG chimeric protein) (UniProt P35968); experiment: cross-linking, SDS-PAGE and autoradiography (figure legend)
[3] = molecular target: soluble KDR-IgG (receptor IgG chimeric protein) (UniProt P35968); experiment: in vitro cross-linking
[4] = molecular target: endogenous KDR in extracts of human placenta (human) (UniProt P35968); experiment: co-immunoprecipitation from extracts of human placenta
[5] = molecular target: endogenous KDR in extracts of human placenta (human) (UniProt P35968); experiment: co-immunoprecipitation from human placenta (figure legend)
[6] = molecular target: KDR (VEGFR2) on the surface of PAE-KDR cells (human) (UniProt P35968); experiment: co-immunoprecipitation from lysates of PAE-KDR-TIMP3 cells

- binding [1]: binds
- binding [2]: binds
- binding [3]: binds
B1: recombinant human TIMP3 (tissue inhibitor of metalloproteinases-3) (protein)
chain: CTCSPSHPQDAFCNSDIVIRAKVVGKKLVKEGPFGTLVYTIKQMKMYRGFTKMPHVQYIHTEASESLCGLKLEVNKYQYLLTGRVYDGKMYTGLCNFVERWDQLTLSQRKGLNYRYHLGCNCKIKSCYYLPCFVTSKNECLWTDMLSNFGYPGYQSKHYACIRQKGGYCSWYRGWAPPDKSIINATDP

- binding [4]: binds
- binding [5]: binds
B2: endogenous TIMP3 in extracts of human placenta (protein, UniProt P35625 24-211, looked up)
chain: B1 chain

- binding [6]: binds
B3: TIMP3 with C-terminal FLAG epitope, stably expressed in PAE-KDR-TIMP3 and PAE-PDGFR-β-TIMP3 cells (protein)
chain: CTCSPSHPQDAFCNSDIVIRAKVVGKKLVKEGPFGTLVYTIKQMKMYRGFTKMPHVQYIHTEASESLCGLKLEVNKYQYLLTGRVYDGKMYTGLCNFVERWDQLTLSQRKGLNYRYHLGCNCKIKSCYYLPCFVTSKNECLWTDMLSNFGYPGYQSKHYACIRQKGGYCSWYRGWAPPDKSIINATDPDYKDDDK
